Results from one PubChem assay

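Luminescence from an EWS-FLI1 target-promoter (NR0B1) reporter, set against a CMV-promoter reporter, two days after silencing single genes in TC32 Ewing sarcoma cells. Each siRNA was applied at 20 nM. A z-score of the log NR0B1-over-CMV signal, less the median of siRNAs with the same seed; more negative means a stronger specific loss of the NR0B1 reporter.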

This is part of the screen; most of the strongest results are not listed here. Sequences are the guide (antisense) strand, without overhang.

Sequence	gene	seed-corrected z-score
UCCACUAUAACAAUUAUCC	SHCBP1L	0.7293
UCUCGUUGAACACCGAUGU	MDGA1	0.3724
UGCUGGUACCAGUAGACGC	VPREB1	0.3759
AUAGUGGUAAGAGAUGCGG	DOPEY1	-1.071
UAGACAUCCUCCAAGGUGC	GLTPD2	-0.09833
UUAUUACCAUGCUCAGUAC	YTHDF3	0.009633
UACGUAAAUAUAAAAAGUG	TSPAN4	0.3813
UAGAGAUCUGGAUUGCUGC	YIPF1	0.5054
UAUUGUUGAUGCAAGUUCC	GPAT3	0.07608
UUCUUGUGCCGGCAGACUC	NOC2L	0.6452
UGUUGUGCAAGUAGAGGCC	AMIGO3	-0.3686
UUCCAUCAAAUCGCUGUUG	ERO1A	-0.7883
UCCAGGACCGGAAUGAUGU	FBLL1	-0.5104
UAUAUGUCUCUUGUCAGGU	RAB39B	-0.3564
UUCGGGUACUCAAAGCACG	TAT	0.529
UAUGUACUGUAGCUACUGC	USP3	0.1024
AUCGUUCAAAAAGAUUUCG	SUCLG1	0.3959
AAGGGUUCCUCAUAUUUCU	BCL9L	-1.092
UGAAGUGAACUGAAUAGGG	PRKCQ-AS1	1.677
UGAACCUCAAAUGUGACUC	CSF2RA	-0.3659
UUGUUGUUCUCGAUGUUGG	PARP3	0.4818
UUCACUUAAAACCAAUUCC	PPP1R36	-0.6191
ACUGUGGAAAAGACUUAGC	PRR34	0.07139
UUACUUGUAAACCUUGUAC	RBBP8	-0.1815
ACAGCGAAUCAUAACAUGG	PTPN11	0.1283
UUGCUGAUAGGUGCUCUCC	RPA2	-0.1727
UUCCAAGCAAGUCCAAUGC	RPTOR	-1.055
AUACUUCCCAAAACGGCUG	MYO5A	-0.4285
UCUAUAUUCGGUUUCAUCC	MEIG1	0.4982
UCUUCUCACAGAGAUCUUC	LRRC47	0.3151
UUUAGAGAUUACAUCAGCC	SLC9A8	-0.3658
ACAGAUGACACGAAUCACC	SLC4A11	-0.4226
UUUCCAUCCACAGAUUGUU	BTF3	-0.438
AACAUCUAAACUGCGAAUC	PRKAA2	0.3944
UCUAGAUACUGAACGAUUG	TMEM209	0.4817
UCUGCGUGAUCUUAAAGCC	SNRPA	0.7199
UUUCGAGUGACAUCGAAGG	CNOT4	0.09509
UAUCAAAUAGUAUCAAGCC	FAM229B	-0.9226
UUAAUUAGUCUGUCAAUUC	RP1	0.8686
AAAUAGUGAAAAUCGAUGC	PTPRM	-0.0906
UACUAUCGCUUUCACAUCC	NBEA	0.02329
UCUGGAACCUCUGCCCAGU	SOX9-AS1	0.0509
UCAAUUAUCACCCACGGAC	VWA1	1.268
UGUUGGACUUGAGAUCACG	MAP3K11	-0.2631
AAAGGCUACAGGAGGAUCC	CIC	0.4369
AAAGCGAAAACCAAUACCU	SIAE	-0.2156
UCUUGUACUUGUCUGUCCU	TMCO1	0.1444
GCCAGUGUCAGCUUUUCCC	LOC646853	0.7093
UCGUAGUUCACUGAGAAGG	LAMP1	-0.9189
UUAUUGAAUCGUGAACGGU	SEPW1	0.6084
UCCUAGAUAAGUCGUAUGC	PIFO	1.762
UUCUUUACAGUUGUCCAUG	DNAJB14	1.958
UCUCCUACAUUUUUCCCAC	LTB	-0.3808
UUCGUCAUCACAUGAUUUC	TEX9	-0.1405
UCUUUGUGCUUGGCCAGCU	RPS19	1.558
AAGGCUCCCAAAAUGAUCC	HTR1B	-1.976
UUUGUUCUCCUGCACAAUC	ARMC6	0.1176
UCAGUGUCUGGUUCAAUCA	ST13P8	0.5486
UACGUACUGAGCCUCAGUC	PTPRH	-1.365
AUCUGUAAUACUGUUCAGC	TSN	-1.38
UACUUCAGAACAAAGUCUG	RNFT2	-0.6579

The first 7 entries again:

* UCCACUAUAACAAUUAUCC against SHCBP1L | seed-corrected z-score 0.7293
* UCUCGUUGAACACCGAUGU against MDGA1 | seed-corrected z-score 0.3724
* UGCUGGUACCAGUAGACGC against VPREB1 | seed-corrected z-score 0.3759
* AUAGUGGUAAGAGAUGCGG against DOPEY1 | seed-corrected z-score -1.071
* UAGACAUCCUCCAAGGUGC against GLTPD2 | seed-corrected z-score -0.09833
* UUAUUACCAUGCUCAGUAC against YTHDF3 | seed-corrected z-score 0.009633
* UACGUAAAUAUAAAAAGUG against TSPAN4 | seed-corrected z-score 0.3813

Data taken from PubChem BioAssay AID1159506, deposited by NCATS (2015).